Results as given in patent US4474761A, “Oligopeptides with specific inhibiting properties of collagen induced aggregation, process for preparing the same and pharmaceutical compositions containing them” (Choay S.A., priority 1980, dated 1984).
Not every detail of the peptide structures is certain; ends, links or a residue may be inferred. Some compounds share one wording; it may come from a single statement. Where a SMILES comes first, the peptide text is derived from it.

Experiments:
[1] = test system: platelet aggregation induced by type III collagen; assay: Platelet aggregation in citrated platelet rich plasma induced by type III collagen (aggregometer, Born's method); type: cell-based; conditions: Table IV; for Activity with respect to aggregation of platelets induced by type III collagen: Experiment III
platelet membranes = assay: Linkage of tritiated nonapeptide to platelet membranes (filtration); type: binding; conditions: Table VIII; Nonapeptide H^3 15 ng; platelet membranes 30 μg; agent 15 μg
Protocol: The study of the nature of the interaction between type III collagen and platelets is carried out in the presence of tritiated (labelled) nonapeptide of formula: […]
The complete platelets or the platelet membranes solubilized in triton (0.15%) are incubated in a physiological buffer of the type described above in the serotonin release test (in a total volume of 0.2 ml) at a temperature of 37° C. for 15 minutes. The incubation is carried out in presence of tritiated nonapeptide the specific activity of which is of […].
The nonapeptide fixed or linked to the platelet or to the membranes is separated from the free nonapeptide by filtration of the incubation medium through multiporous membranes having porosities of 0.8μ and 0.45μ respectively. The radio activity is directly determined on the filters and the percentage of linkages determined according to the following formula: [formula]
(c) Table VIII relates to the linkage specificity. It represents the linkage percentages between the platelet membranes and different peptides of the invention in the presence of various aggregation inducers (15 ng of peptide, 30 μg of platelet membrane).
The specificity of the linkage is assessed by the total displacement of the corresponding radio-activity by an excess of non labelled peptide of the invention. This excess corresponds to an amount of 100 to 1000 times more than the amount of non labelled peptide which is necessary to induce adhesion of the platelets.
Said reversibility has been studied in the presence of two concentrations of labelled (nona)peptide which are respectively of 3 and 6 ng, for 30 μg of platelet membranes. After the binding of the labelled nonapeptide to the membranes, the incubation media are diluted to the 80 volumes:
in the absence of non labelled (nona)peptide;
and in the presence of an excess of non labelled (nona)peptide (as indicated under c) for the reversibility test).
The percentage of linkage is then determined as a function of an incubation duration ranging from 0 to 15 minutes.
The reversibility is measured by the dissociation factor and the dissociation time.

[2] = collagen 3 μg, 840 n moles (pH 7.4)

Compound: NCCCC[C@H](NC(=O)[C@@H]1CCCN1C(=O)CNC(=O)[C@@H]1C[C@@H](O)CN1C(=O)[C@H](CCC(=O)O)NC(=O)CNC(=O)[C@@H]1C[C@@H](O)CN1C(=O)[C@H](CCCCN)NC(=O)CNC(=O)[C@@H](N)Cc1ccc(O)cc1)C(=O)O [decapeptide (3), Tyr-Gly-Lys-Hyp-Gly-Glu-Hyp-Gly-Pro-Lys] (HELM PEPTIDE1{Y.G.K.[Hyp].G.E.[Hyp].G.P.K}$$$$V2.0)
- Activity with respect to aggregation of platelets induced by type III collagen [1]: inhibit platelet aggregation in the same way as the nonapeptide of formula (4)
- % of inhibition of intensity ([1]; collagen 2 μg, 420 n moles): 44.6%
- % of inhibition of velocity ([1]; collagen 2 μg, 420 n moles): 48%
- Intensity ([1]; collagen 2 μg, 420 n moles): 33.8%
- Velocity ([1]; collagen 2 μg, 420 n moles): 7%
- % of inhibition of intensity ([1]; collagen 2 μg, 600 n moles): 64.3%
- % of inhibition of velocity ([1]; collagen 2 μg, 600 n moles): 64%
- Intensity ([1]; collagen 2 μg, 600 n moles): 21.8%
- Velocity ([1]; collagen 2 μg, 600 n moles): 4.9%
- % of inhibition of intensity ([1]; collagen 2 μg, 840 n moles): 100%
- % of inhibition of velocity ([1]; collagen 2 μg, 840 n moles): 100%
- Intensity ([1]; collagen 2 μg, 840 n moles): 0%
- Velocity ([1]; collagen 2 μg, 840 n moles): 0%
- Linkage % of Nonapeptide H^3 in presence of agent (platelet membranes): 0.09%

Compound: NCCCC[C@H](NC(=O)[C@@H]1CCCN1C(=O)CNC(=O)[C@@H]1C[C@@H](O)CN1C(=O)[C@H](CCC(=O)O)NC(=O)CNC(=O)[C@@H]1C[C@@H](O)CN1C(=O)[C@@H](N)CCCCN)C(=O)NCC(=O)O [nonapeptide (2), Lys-Hyp-Gly-Glu-Hyp-Gly-Pro-Lys-Gly] (HELM PEPTIDE1{K.[Hyp].G.E.[Hyp].G.P.K.G}$$$$V2.0)
- Activity with respect to aggregation of platelets induced by type III collagen [1]: inhibit platelet aggregation in the same way as the nonapeptide of formula (4)
- % of inhibition of intensity ([1]; collagen 5 μg, 840 n moles): 50%
- % of inhibition of velocity ([1]; collagen 5 μg, 840 n moles): 53.6%
- Intensity ([1]; collagen 5 μg, 840 n moles): 20.4%
- Velocity ([1]; collagen 5 μg, 840 n moles): 5.1%
- Linkage % of Nonapeptide H^3 in presence of agent (platelet membranes): 0.4%

Compound: NCC(=O)N[C@@H](CCC(=O)O)C(=O)N1C[C@H](O)C[C@H]1C(=O)NCC(=O)N1CCC[C@H]1C(=O)O [Gly--Glu--Hyp--Gly--Pro, reference compound] (HELM PEPTIDE1{G.E.[Hyp].G.P}$$$$V2.0)
- Activity with respect to aggregation of platelets induced by type III collagen [1]: no activity
- % of inhibition of intensity [1, 2]: 0%
- % of inhibition of velocity [1, 2]: 0%
- Intensity [1, 2]: 24.7%
- Velocity [1, 2]: 6.95%

Compound: NCCCC[C@H](NC(=O)[C@@H]1CCCN1C(=O)CNC(=O)[C@@H]1CCCN1C(=O)[C@H](CCC(=O)O)NC(=O)CNC(=O)[C@@H]1CCCN1C(=O)[C@H](CCCCN)NC(=O)CN)C(=O)O [nonapeptide (1), Gly-Lys-Pro-Gly-Glu-Pro-Gly-Pro-Lys] (H-GKPGEPGPK-OH)
- Activity with respect to aggregation of platelets induced by type III collagen [1]: inhibit platelet aggregation in the same way as the nonapeptide of formula (4)
- % of inhibition of intensity ([1]; collagen 5 μg, 840 n moles): 47%
- % of inhibition of velocity ([1]; collagen 5 μg, 840 n moles): 49%
- Intensity ([1]; collagen 5 μg, 840 n moles): 24.6%
- Velocity ([1]; collagen 5 μg, 840 n moles): 5.6%
- Linkage % of Nonapeptide H^3 in presence of agent (platelet membranes): 0%
